The supplement of paper PMC3334620
The full ranking holds about 33,000 sequences; the median of “E-score (-0.5 to 0.5)” is about -0.015, and the highest 2% start at about 0.3. This is one part of the list.

Molecular target: T1, Abf1 (UniProt P14164)
T1 sequence: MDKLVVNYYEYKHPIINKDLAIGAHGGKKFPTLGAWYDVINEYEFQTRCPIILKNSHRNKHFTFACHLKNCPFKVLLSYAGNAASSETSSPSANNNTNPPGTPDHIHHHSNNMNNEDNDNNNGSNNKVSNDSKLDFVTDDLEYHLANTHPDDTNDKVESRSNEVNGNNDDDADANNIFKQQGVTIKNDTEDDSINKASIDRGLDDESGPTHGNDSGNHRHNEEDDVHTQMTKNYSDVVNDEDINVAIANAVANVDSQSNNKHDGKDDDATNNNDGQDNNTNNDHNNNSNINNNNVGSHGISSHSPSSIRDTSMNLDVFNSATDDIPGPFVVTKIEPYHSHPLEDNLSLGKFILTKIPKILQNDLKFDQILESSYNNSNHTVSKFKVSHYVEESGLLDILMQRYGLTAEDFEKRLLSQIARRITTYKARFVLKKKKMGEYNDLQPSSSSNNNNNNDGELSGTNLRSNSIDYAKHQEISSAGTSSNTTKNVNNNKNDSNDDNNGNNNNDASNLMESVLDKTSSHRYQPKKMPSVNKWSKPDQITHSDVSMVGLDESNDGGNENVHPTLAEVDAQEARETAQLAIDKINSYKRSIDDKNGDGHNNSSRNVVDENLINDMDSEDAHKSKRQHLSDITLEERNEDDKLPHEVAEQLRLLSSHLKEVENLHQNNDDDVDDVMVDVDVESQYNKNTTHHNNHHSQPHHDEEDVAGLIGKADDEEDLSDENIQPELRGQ
Assay: PBM E-score (8-mer binding enrichment) (E-score (-0.5 to 0.5)); higher = stronger / more preferred TF binding
Details: protein concentration: 200 nM; construct: GST-full length
Procedure, shortened: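 Yeast transcription factors, full-length or as DNA-binding domains, were expressed with a GST tag using PURExpress in vitro transcription/translation. At about 100-200 nM they were applied to universal all-10-mer Agilent arrays, double-stranded by primer extension on fresh or once-stripped slides. Fluorescent anti-GST detected bound protein, and masliner normalised the scans. E-scores for ungapped eight-base words, pooled with reverse complements, came from the Universal PBM Analysis Suite.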

Sequence	PBM E-score
CTTTCGTA	0.376
ATATATGA	0.0175
CGGTCCAG	-0.153
AACAACGC	0.0961
AGCCTAAT	-0.00782
AATATTAA	0.269
ACGTCAAA	0.22
CACCCTTA	-0.00883
GTATGATA	0.327
GCCAGGCA	-0.186
AACCACCT	-0.127
CGCTGGTA	-0.0865
AAGCTTGG	-0.13
ACGCCATG	0.0169
AACTAGTC	-0.214
ATACTGGG	-0.105
AACGATCG	0.24
ACCCAAGT	-0.0785
AGGAGGAA	-0.126
CTCTTCCC	-0.293
CAGGAACC	-0.244
AGCGTGAC	0.186
ATATCCAT	0.154
AGATCTAT	-0.0505
AATTGGTC	0.111

Some values from the list.
PBM E-score with CTCTTCCC reads -0.293
PBM E-score with ATACTGGG reads -0.105
PBM E-score with AAGCTTGG reads -0.13

Continuation:

Sequence	PBM E-score
CACGTCAA	0.0325
AAAATCGT	0.247
AGATCCAT	-0.203
CAGAGCGC	-0.162
GTGCCAAC	0.0627
GGAGAACC	-0.211
AGGCGCGG	-0.136
TAAACTTA	0.139
CTGTTTCA	-0.0487
ATGGGAGA	-0.177
GCGAAGCC	-0.277
CCGAAAAG	0.0135
AGGGTCCC	-0.265
ATCCCTGA	-0.0627
CAATATCC	-0.00513
CCGGCTCC	-0.21
AGTGCGGA	-0.0906
AGGGCCAC	-0.143
CTGTCTCA	0.0534
ACGTAATG	0.258
AAACAGAT	0.0674
AGCTTTGG	-0.058
GTTCGACA	0.108
CAGCCGAG	-0.248
CCATTTCC	-0.0246

Sequence	PBM E-score
AATTAAAT	0.0825
CACGATAC	0.255
GCGTTTTA	0.00291
AATAATAA	0.225
TCACGCCA	0.113
GTCCAAGA	-0.112
TAGTTGAA	0.0437
TATAGGCA	-0.0446
AGACTCCA	-0.0568
AAGTACCA	0.0667
GGTAAGGA	-0.214
ATTGCTTG	0.0997
AAGCTGGT	-0.0937
TGAAGCCA	0.0544
ATAACAGC	0.0681
CCACGTTC	-0.0808
CTCTCAAA	0.00774
AAAACAAT	0.0324
CGTCCACC	-0.0672
GACTTCAC	0.169
ATCCTTCA	-0.0543
CATTGGGC	-0.24
GGCTTAAA	0.0563
GCACTCAC	-0.166
GCGAGCGC	-0.0773

Sequence	PBM E-score
CAGTGATC	0.366
CCATAATA	0.137
CCCTGAGG	-0.109
AGATAGTC	-0.00051
AAAAGGTT	-0.0931
ATTCATCC	-0.00341
CGTATTAG	0.241
TCTAGAGA	-0.289
AGATCGAA	0.0897
GGCTGAAA	0.0806
CTCTCGCC	-0.243
GCGGGAAA	0.0281
GAATTACA	0.0246
ATGTCGGA	-0.0366
GTTTCTTA	0.15
CCCATCGC	-0.188
AGTGGCCG	-0.182
CGTGACCC	0.0466
CAATGAGA	-0.0863
ACGGTTAT	0.146
CCTTGGAG	-0.167
ACCAGGTA	-0.0855
AAATTGGA	0.15
AACGATTG	0.221
AGGTAGTG	-0.012

Sequence	PBM E-score
ACCGTCCT	-0.052
CGGCCAAC	-0.133
ATCCCTAA	-0.0343
AAAGCCGC	-0.312
GCAGCGGC	-0.173
GAGTGTGA	0.208
GAGAAACA	0.0661
CGGAGGGA	-0.175
CCGTTGCG	0.245
CACACGTA	0.163
ACCCATCT	0.0981
CCACTTGC	-0.0793
CAAGAACA	0.0504
GGTATGTA	-0.0209
ATCTCCGC	-0.0314
GAGATGGA	-0.173
CGCAAAGC	-0.053
ACGAGGGA	0.0996
CTCCGAAA	-0.148
AAATGAAA	0.214
AGGCTTAA	-0.129
CGTCGGAA	0.213
CGACTCGA	0.0259
AGGATTCC	-0.182
CTAGATGC	0.0769

Some of the entries above, set out differently:
Sequence | PBM E-score
CGGCCAAC | -0.133
CGCAAAGC | -0.053
CGACTCGA | 0.0259

Going on with the list.

Sequence	PBM E-score
CCATCTCC	-0.0348
GGCCGCCA	-0.112
AGCTCTTA	-0.00859
AGCCCATA	-0.0755
GACTGTGA	0.0113
ATAGGCAA	-0.193
ACTCGCTC	-0.0894
ATGTTATA	0.125
AGGAACCT	-0.114
CTGAGACA	0.0887
TTAAGCAA	0.0776
AGTTTAAG	-0.109
CTCAGGAA	-0.0849
GATTAGGA	0.133
GCCGGACA	-0.00605
ACGTCGGG	0.00065
TAATTCTA	-0.0318
GCGCTCGA	-0.0265
CTCCTGGA	-0.105
CCGCGTTA	-0.0652
ATCCAGTG	0.0711
TTCCTAAA	-0.099
GCATCACC	-0.101
GGTGACAA	0.423
CCGGCCGG	-0.041

Sequence	PBM E-score
CAATACGC	0.0113
CTGAACGC	-0.123
AGAAGTCC	-0.226
CCCGGCAA	-0.0051
GCCCTGCC	-0.284
AGGTGAGG	0.115
TCGGCGAA	0.00757
GCTTGCCA	0.0272
AGCGCGCT	-0.284
ACTACTAG	0.085
AGGTATTA	0.145
CTACCGCA	-0.204
AAGAGGTG	-0.108
ATTAAGTC	0.0599
CATAATCG	0.148
CTGAAGTC	-0.113
ACTCTAAA	-0.0224
GGACTCTA	-0.272
ACGGCGAG	0.111
ACCACGTG	-0.0911
ACGTGTAG	-0.0356
GCATCCCC	-0.147
GCATACAA	0.133
AACGGGAA	0.166
AATGAAGT	-0.0259

Sequence	PBM E-score
TCAAATGA	0.075
ATATCGGG	0.018
AGTCACCC	-0.0187
CGTCGGTA	0.0448
GAATAAAA	0.132
GCTTGATA	0.136
ACCAGCGC	-0.0959
AGGGCAGC	-0.179
ATGCACAA	-0.0115
AAACATGG	-0.198
TCCTAAGA	-0.0983
ATATGATG	0.191
GTTGTAAA	-0.0535
AAGTGCAA	0.0101
TGTGATAA	0.297
CAACCGGG	-0.116
TCGCCCAA	-0.0297
ATGAATAC	0.148
TGATTCAA	0.0649
CACATGGA	0.00533
TATACTGA	0.232
ACAAAGTG	0.172
CTCATAGA	-0.0846
ACGCGCGG	0.0477
ACAATCGA	-0.0266

3 entries picked at random from those above:
Sequence	PBM E-score
CCCGGCAA	-0.0051
AGGTATTA	0.145
GAGATGGA	-0.173

Later entries

Sequence	PBM E-score
ATTATTAA	0.199
TGAAAAAA	0.0184
CACGCCGG	-0.0297
CGTTTGCC	0.0411
AGATAATG	0.0861
ATGAGGAC	0.0336
GCCATCGC	-0.0666
ACAGGGAA	-0.153
AGCCCAGC	-0.184
AATTGTAA	-0.121
ACGCTCGC	0.0194
AGAGTCTG	-0.187
GGAGCTAC	-0.211
TAGCCAGA	-0.0467
AGCTAATC	0.142
GTCCACGA	0.223
GTACTCGA	-0.0155
CATATGAA	0.0102
GAGATCTA	-0.121
